Source: the supplement of paper PMC4635364
Structures can show the parent of a compound that is named as a salt. Some of the results follow. This data set is noisy: repeats of one test often differ as much as different tests do.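 ReNCell VM, a human fetal ventral-midbrain neural progenitor line, was differentiated without mitogens. Blinded raters scored images stained for doublecortin (early neurons) or tyrosine hydroxylase (dopaminergic neurons) against untreated wells (0 = no change). Scores were averaged across repeats and both raters, and compounds averaging 2 or more were selected as hits for retesting.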

Each compound was assayed on ReNCell VM (assay: neuronal differentiation score (DCX+ cell fraction vs untreated, manual image score) (score (-3 to 3)); higher = more neuronal differentiation). Conditions: library: LOPAC; 2 uM; 2 weeks.

Neuronal differentiation score, inactive:
O=C(/C=C/c1ccc(O)cc1)c1ccc(O)cc1O [Isoliquiritigenin] 0
Cc1cc(C(C)(C)C)cc(C)c1CC1=NCCN1 [Xylometazoline hydrochloride] 0
Cc1cnc(C(=O)NCCc2ccc(S(=O)(=O)NC(=O)NC3CCCCC3)cc2)cn1 [Glipizide] 0
CC(=O)c1ccc(S(=O)(=O)NC(=O)NC2CCCCC2)cc1 [Acetohexamide] 0
CC(C)(C)c1ccc(/C=C/C(=O)Nc2ccc3c(c2)OCCO3)cc1 0
CCCCNc1cc(C(=O)O)cc(S(N)(=O)=O)c1Oc1ccccc1 [Bumetanide] -1
CC(C)C(=O)Nc1ccc([N+](=O)[O-])c(C(F)(F)F)c1 [Flutamide] 0
CCn1nc(C(=O)O)c(=O)c2cc3c(cc21)OCO3 [Cinoxacin] 1
CCn1c(=O)[nH]c2cc(Cl)c(Cl)cc21 0
Oc1cc(O)cc(/C=C/c2ccc(O)c(O)c2)c1 [Piceatannol] 0
COc1ccccc1N1CCN(CCCCN2C(=O)c3ccccc3C2=O)CC1 [NAN-190 hydrobromide] 0
O=C(C1CCCCC1)N1CC(=O)N2CCc3ccccc3C2C1 (stereo not given) [Praziquantel] 0
CC(C)N(CCC(=O)c1ccc2ccccc2c1)Cc1ccccc1 0
CC(C)(C)NCC(O)c1ccc(O)c(CO)c1 (stereo not given) [Salbutamol] 0
CC(C)(Oc1ccc(C2CC2(Cl)Cl)cc1)C(=O)O (stereo not given) [Ciprofibrate] 0
CC(CCc1ccccc1)NCC(O)c1ccc(O)c(C(N)=O)c1 (stereo not given) [Labetalol hydrochloride] 0
CN(C)CCCN1c2ccccc2Sc2ccc(Cl)cc21 [Chlorpromazine hydrochloride] 0
COc1cc2c(CCNC(C)=O)c[nH]c2cc1Cl [6-Chloromelatonin] 0
CCCN(CC1CC1)c1nc(C)nc(Nc2c(Cl)cc(Cl)cc2Cl)c1Cl 0
CN[C@H]1CC[C@@H](c2ccc(Cl)c(Cl)c2)c2ccccc21 [Sertraline hydrochloride] 0
CC(C(O)c1ccc(O)cc1)N1CCC(Cc2ccccc2)CC1 (stereo not given) [Ifenprodil tartrate] 0
O=C1NCC2(CCN(CCc3ccccc3)CC2)O1 [Fenspiride hydrochloride] -1
N=C(N)c1ccc(OCCCCCOc2ccc(C(=N)N)cc2)cc1 [Pentamidine isethionate] 0
OC[C@H]1O[C@@H](n2cnc3c(N[C@H]4CCC[C@@H]4O)ncnc32)[C@H](O)[C@@H]1O -2
O=C1Nc2ccc(I)cc2/C1=C/c1cc(Br)c(O)c(Br)c1 1
C1COC(NC(C2CC2)C2CC2)=N1 [Rilmenidine hemifumarate] 0
CC(=O)O[C@]1(C(C)=O)CC[C@H]2[C@@H]3C=C(Cl)C4=CC(=O)[C@@H]5C[C@@H]5[C@]4(C)[C@H]3CC[C@@]21C [Cyproterone acetate] 0
O=c1c(O)c(-c2cc(O)c(O)c(O)c2)oc2cc(O)cc(O)c12 [Myricetin] 0
CN1CCN2c3ccccc3Cc3ccccc3C2C1 (stereo not given) [Mianserin hydrochloride] 0
COc1ccc(CCCOC(Cn2ccnc2)c2ccc(OC)cc2)cc1 (stereo not given) 0
NCCCCNCCCN [Spermidine trihydrochloride] 0
O=C(O)c1cc(=O)c2c(Cl)cc(Cl)cc2[nH]1 [5,7-Dichlorokynurenic acid] 0
CN(C)CC/C=C1/c2ccccc2Sc2ccc(Cl)cc21 [Chlorprothixene hydrochloride] 0

Same assay, conditions: library: Phytochemical; 2 uM; 2 weeks

Neuronal differentiation score, inactive:
O=C(/C=C/c1ccc(O)cc1)c1ccc(O)cc1O [Isoliquiritigenin] 0
O=c1c(O)c(-c2ccc(O)cc2)oc2cc(O)cc(O)c12 [Kaempferol] 0
CN1CCc2cccc3c2[C@H]1Cc1ccc(O)c(O)c1-3 [R(-) Apomorphine hydrochloride hemihydrate] 0
O=c1c(O)c(-c2cc(O)c(O)c(O)c2)oc2cc(O)cc(O)c12 [Myricetin] 0
COc1ccccc1O [Guaiacol] 0

Same assay, conditions: library: Prestwick; 2 uM; 2 weeks

Neuronal differentiation score, inactive:
Cc1cc(C(C)(C)C)cc(C)c1CC1=NCCN1 [Xylometazoline hydrochloride] 0
Cc1cnc(C(=O)NCCc2ccc(S(=O)(=O)NC(=O)NC3CCCCC3)cc2)cn1 [Glipizide] 0
CC(=O)c1ccc(S(=O)(=O)NC(=O)NC2CCCCC2)cc1 [Acetohexamide] 0
CCCCNc1cc(C(=O)O)cc(S(N)(=O)=O)c1Oc1ccccc1 [Bumetanide] 0
CC(C)C(=O)Nc1ccc([N+](=O)[O-])c(C(F)(F)F)c1 [Flutamide] 0
CCn1nc(C(=O)O)c(=O)c2cc3c(cc21)OCO3 [Cinoxacin] 0
COC(=O)C1=C(C)NC(C)=C(C(=O)OC(C)C)C1c1cccc2nonc12 (stereo not given) [Isradipine] 1
O=C(C1CCCCC1)N1CC(=O)N2CCc3ccccc3C2C1 (stereo not given) [Praziquantel] 0
OCc1cc(C(O)CNCCCCCCOCCCCc2ccccc2)ccc1O (stereo not given) [Salmeterol] 0
CC(C)(C)NCC(O)c1ccc(O)c(CO)c1 (stereo not given) [Salbutamol] 0
CC(C)(Oc1ccc(C2CC2(Cl)Cl)cc1)C(=O)O (stereo not given) [Ciprofibrate] 0
CC(CCc1ccccc1)NCC(O)c1ccc(O)c(C(N)=O)c1 (stereo not given) [Labetalol hydrochloride] 0
Nc1nc2ccc(OC(F)(F)F)cc2s1 [Riluzole hydrochloride] 0
CN(C)CCCN1c2ccccc2Sc2ccc(Cl)cc21 [Chlorpromazine hydrochloride] 0
CC(C(O)c1ccc(O)cc1)N1CCC(Cc2ccccc2)CC1 (stereo not given) [Ifenprodil tartrate] 0
O=C1NCC2(CCN(CCc3ccccc3)CC2)O1 [Fenspiride hydrochloride] 0
N=C(N)c1ccc(OCCCCCOc2ccc(C(=N)N)cc2)cc1 [Pentamidine isethionate] 0
CN1CCc2cccc3c2[C@H]1Cc1ccc(O)c(O)c1-3 [R(-) Apomorphine hydrochloride hemihydrate] 0
CC(=O)O[C@]1(C(C)=O)CC[C@H]2[C@@H]3C=C(Cl)C4=CC(=O)[C@@H]5C[C@@H]5[C@]4(C)[C@H]3CC[C@@]21C [Cyproterone acetate] 0
COc1ccccc1O [Guaiacol] 0
CSc1ccc2c(c1)C(N1CCN(C)CC1)Cc1ccccc1S2 (stereo not given) [Methiothepin maleate] 0
CN(C)CC/C=C1/c2ccccc2Sc2ccc(Cl)cc21 [Chlorprothixene hydrochloride] 0
